The record followed here is US20070213354A1, “Compositions and Methods for the Treatment of Multiple Sclerosis” (AmpliMed Corporation, priority 2006, published 2007).

Some results come without the dose or concentration used.

The series has as its system neonatal rat myocytes. The series is described as follows: Cardiotoxicity, neonatal rat myocyte assay (ATP/protein ratio). Format: cell-based. The following applies: ratio of the IC50 values for Cardiotox and L1210 sensitive assays.

For `O=C1c2cccc3cc4ccccc4c(c23)C(=O)N1Cc1cccnc1` [2-CH2-3-pyridyl], the “Cardiotox:L1210sens” value is listed as 13.35.

Turning to `CN(C)CCN1C(=O)c2ccc(NCCO)c3cc4ccccc4c(c23)C1=O` [*6-NH(CH2)2OH], the “Cardiotox:L1210sens” value was 201.50.

In the case of `CC(=O)Nc1ccc2c3c4c(cccc4cc2c1)C(=O)N(CCN(C)C)C3=O` [*9-NHCOCH3], the “Cardiotox:L1210sens” value was determined as 4.27.

As to `CN(C)CCCN1C(=O)c2cccc3cc4ccccc4c(c23)C1=O` [2-(CH2)3N(CH3)2], the “Cardiotox:L1210sens” value is on record as 211.30.

Consider `CN(C)CCNc1ccc2c3c(c4cccc(Cl)c4cc13)C(=O)N(CCN(C)C)C2=O` [*6-NH(CH2)2N(CH3)2; 8-Cl], for which the “Cardiotox:L1210sens” value was 1075.33.

Turning to `COc1ccc2c3c4c(cccc4cc2c1)C(=O)N(CCN(C)C)C3=O` [*9-OCH3], the “Cardiotox:L1210sens” value turned out to be 48.09.

With `COc1ccc2cc3cccc4c3c(c2c1)C(=O)N(CCN(C)C)C4=O` [*10-OCH3], the “Cardiotox:L1210sens” value is given as 433.48.

Turning to `O=C1c2cccc3cc4ccccc4c(c23)C(=O)N1Cc1ccccn1` [2-CH2-2-pyridyl], the “Cardiotox:L1210sens” value was 0.93.

With `CN(C)CCNc1c2ccccc2c2c3c(cccc13)C(=O)N(CCN(C)C)C2=O` [*7-NH(CH2)2N(CH3)2], the “Cardiotox:L1210sens” value was found to be 554.65.

Regarding `O=C1c2cccc3cc4ccccc4c(c23)C(=O)N1CCCN(CCO)CCO` [2-(CH2)3N(CH2CH2OH)2], the “Cardiotox:L1210sens” value is on record as 117.24.

Turning to `CN(C)CCN1C(=O)c2cccc3cc4ccc(N)cc4c(c23)C1=O` [*10-NH2], the “Cardiotox:L1210sens” value came out at 314.33.

In the case of `O=C1c2cccc3cc4ccccc4c(c23)C(=O)N1c1cccnc1` [2-(3-pyridyl)], the “Cardiotox:L1210sens” value is 45.96.

Regarding `Cc1ccc2cc3cccc4c3c(c2c1)C(=O)N(CCN(C)C)C4=O` [*10-CH3], the “Cardiotox:L1210sens” value is recorded as 24.49.

`COc1cccc2c3c4c(cccc4cc12)C(=O)N(CCN(C)C)C3=O` [*8-OCH3]: the “Cardiotox:L1210sens” value is on record as 62.00.

In the case of `CCOc1c2ccccc2c2c3c(cccc13)C(=O)N(CCN(C)C)C2=O` [*7-OC2H5], the “Cardiotox:L1210sens” value amounted to 84.13.

For `CN(C)CCN1C(=O)c2cccc3cc4ccc([N+](=O)[O-])cc4c(c23)C1=O` [*10-NO2], the “Cardiotox:L1210sens” value was 32.04.

Consider `O=C1c2cccc3cc4ccccc4c(c23)C(=O)N1CCN1CCNCC1` [2-(CH2)2—N-piperazinyl], for which the “Cardiotox:L1210sens” value is listed as 38.58.

With `CN(C)CCN1C(=O)c2cccc3c(O)c4ccccc4c(c23)C1=O` [*7-OH], the “Cardiotox:L1210sens” value turned out to be 51.05.

On to `CN(C)CCN1C(=O)c2cccc3cc4ccc(Cl)cc4c(c23)C1=O` [*10-Cl], for which the “Cardiotox:L1210sens” value was determined as 154.20.

Consider `CN(C)CCN1C(=O)c2cc(NC(=O)C(C)(C)C)cc3cc4ccccc4c(c23)C1=O` [*5-NHCOC(CH3)3], for which the “Cardiotox:L1210sens” value was found to be 15.05.

In the case of `CC(=O)Nc1cc2c3c(c4ccccc4cc3c1)C(=O)N(CCN(C)C)C2=O` [*5-NHCOCH3], the “Cardiotox:L1210sens” value is reported as 9.32.

Regarding `CN(C)CCN1C(=O)c2cccc3cc4ccc(O)cc4c(c23)C1=O` [*10-OH], the “Cardiotox:L1210sens” value is 142.80.

For the compound `CCOc1ccc2c3c(c4ccccc4cc13)C(=O)N(CCN(C)C)C2=O` [*6-OC2H5], the “Cardiotox:L1210sens” value is recorded as 222.38.

For the compound `CN(C)CCN1C(=O)c2ccc(N)c3cc4ccccc4c(c23)C1=O` [*6-NH2], the “Cardiotox:L1210sens” value is reported as 297.20.

On to `CN(C)CCN1C(=O)c2ccc(I)c3cc4ccccc4c(c23)C1=O` [*6-I], for which the “Cardiotox:L1210sens” value worked out at 105.06.

Regarding `O=C1c2cccc3cc4ccccc4c(c23)C(=O)N1CCN1CCCCC1` [2-(CH2)2N(CH2)5], the “Cardiotox:L1210sens” value amounted to 203.92.

With `CN(C)CCN1C(=O)c2cccc3cc4cccc(O)c4c(c23)C1=O` [*11-OH], the “Cardiotox:L1210sens” value turned out to be 81.61.

With `CSc1c2ccccc2c2c3c(cccc13)C(=O)N(CCN(C)C)C2=O` [*7-SCH3], the “Cardiotox:L1210sens” value came to 8.00.

For the compound `CN(C)CCN1C(=O)c2ccc(Cl)c3cc4ccccc4c(c23)C1=O` [*6-Cl], the “Cardiotox:L1210sens” value was found to be 53.42.

Regarding `CN(C)c1ccc(N2C(=O)c3cccc4cc5ccccc5c(c34)C2=O)cc1` [2-(p-N(CH3)2)—C6H5)], the “Cardiotox:L1210sens” value was 199.53.

For the compound `CC(=O)Nc1ccc2cc3ccccc3c3c2c1C(=O)N(CCN(C)C)C3=O` [*4-NHCOCH3], the “Cardiotox:L1210sens” value is on record as 40.02.

Turning to `CN(C)CCNc1ccc2cc3ccccc3c3c2c1C(=O)N(CCN(C)C)C3=O` [*4-NH(CH2)2N(CH3)2], the “Cardiotox:L1210sens” value was determined as 3.50.

For the compound `CN(C)CCN1C(=O)c2c(NC(=O)C(C)(C)C)ccc3cc4ccccc4c(c23)C1=O` [*4-NHCOC(CH3)3], the “Cardiotox:L1210sens” value came out at 28.57.

As to `O=C1c2cccc3cc4ccccc4c(c23)C(=O)N1CCc1ccccn1` [2-(CH2)2-2-pyridyl], the “Cardiotox:L1210sens” value is on record as 3.88.

Turning to `CNCCN1C(=O)c2cccc3cc4ccccc4c(c23)C1=O` [2-(CH2)2NHCH3], the “Cardiotox:L1210sens” value came to 706.00.

With `CN(C)CCN1C(=O)c2cccc3cc4cc(N)ccc4c(c23)C1=O` [*9-NH2], the “Cardiotox:L1210sens” value amounted to 271.00.

With `CN(C)CCN1C(=O)c2cccc3cc4cccc([N+](=O)[O-])c4c(c23)C1=O` [*11-NO2], the “Cardiotox:L1210sens” value is reported as 375.96.

With `COc1ccc2c3c(c4ccccc4cc13)C(=O)N(CCN(C)C)C2=O` [*6-OCH3], the “Cardiotox:L1210sens” value worked out at 266.33.

Turning to `CC(=O)Nc1c2ccccc2c2c3c(cccc13)C(=O)N(CCN(C)C)C2=O` [*7-NHCOCH3], the “Cardiotox:L1210sens” value was 48.49.

In the case of `CCCOc1c2ccccc2c2c3c(cccc13)C(=O)N(CCN(C)C)C2=O` [*6-OC3H7], the “Cardiotox:L1210sens” value was determined as 456.35.

In the case of `CN(C)CCN1C(=O)c2cccc3c(Cl)c4ccccc4c(c23)C1=O` [*7-Cl], the “Cardiotox:L1210sens” value was 70.11.

For `CN(C)CCN1C(=O)c2cccc3cc4cc(O)ccc4c(c23)C1=O` [*9-OH], the “Cardiotox:L1210sens” value turned out to be 80.80.

For `CCN1CCCC1CN1C(=O)c2cccc3cc4ccccc4c(c23)C1=O` (stereo not shown) [2-CH2-(1-ethyl-2-pyrrolidinyl)], the “Cardiotox:L1210sens” value came out at 422.22.

As to `CN1CCCC1CCN1C(=O)c2cccc3cc4ccccc4c(c23)C1=O` (stereo not shown) [2-(CH2)2-(1-methyl-2-pyrrolidinyl)], the “Cardiotox:L1210sens” value is listed as 138.82.

Consider `CN(C)CCN1C(=O)c2ccc(S(C)(=O)=O)c3cc4ccccc4c(c23)C1=O` [*6-SO2CH3], for which the “Cardiotox:L1210sens” value was found to be 66.14.

As for `O=C1c2cccc3cc4ccccc4c(c23)C(=O)N1CCN1CCOCC1` [2-(CH2)2—N-morpholinyl], the “Cardiotox:L1210sens” value is 48.83.

With `Cc1c2ccccc2c2c3c(cccc13)C(=O)N(CCN(C)C)C2=O` [*7-CH3], the “Cardiotox:L1210sens” value was 49.56.

Regarding `CN(C)CCN1C(=O)c2ccc(O)c3cc4ccccc4c(c23)C1=O` [*6-OH], the “Cardiotox:L1210sens” value is 111.04.

`CCN1CCCC(N2C(=O)c3cccc4cc5ccccc5c(c34)C2=O)C1` (stereo not shown) [2-(1-ethyl-3-piperidinyl)]: the “Cardiotox:L1210sens” value was determined as 13.80.

As for `CN(C)CCN1C(=O)c2cccc3cc4cccc(N)c4c(c23)C1=O` [*11-NH2], the “Cardiotox:L1210sens” value is given as 39.97.

For the compound `CN(C)CCN1C(=O)c2cccc3cc4ccc(F)cc4c(c23)C1=O` [*10-F], the “Cardiotox:L1210sens” value is 57.00.

For `CN(C)CCN1C(=O)c2cccc3cc4c(O)cccc4c(c23)C1=O` [*8-OH], the “Cardiotox:L1210sens” value stood at 27.31.

For the compound `CC(=O)Nc1cccc2cc3cccc4c3c(c12)C(=O)N(CCN(C)C)C4=O` [*11-NHCOCH3], the “Cardiotox:L1210sens” value amounted to 92.59.

Regarding `CN(C)CCN1C(=O)c2cccc3cc4ccc(NC(=O)C(C)(C)C)cc4c(c23)C1=O` [*10-NHCOC(CH3)3], the “Cardiotox:L1210sens” value is reported as 55.13.

`CN(C)CCNc1ccc2c3c(c4ccccc4cc13)C(=O)N(CCN(C)C)C2=O` [*6-NH(CH2)2N(CH3)2]: the “Cardiotox:L1210sens” value worked out at 104825.00.

Regarding `CN(C)CCN1C(=O)c2cccc3cc4ccccc4c(c23)C1=O` [2-(CH2)2N(CH3)2], the “Cardiotox:L1210sens” value is 283.29.

With `CN(C)CCN1C(=O)c2cccc3cc4c(N)cccc4c(c23)C1=O` [*8-NH2], the “Cardiotox:L1210sens” value is 12.00.

`O=C1c2c(O)ccc(O)c2C(=O)c2c(NCCNCCO)ccc(NCCNCCO)c21` [Mitoxantrone, reference compound]: the “Cardiotox:L1210sens” value is given as 773.70.

`COc1cccc2c1C(=O)c1c(O)c3c(c(O)c1C2=O)C[C@@](O)(C(=O)CO)C[C@@H]3O[C@H]1C[C@H](N)[C@H](O)[C@H](C)O1` [Doxorubicin, reference compound]: the “Cardiotox:L1210sens” value is listed as 290.03.

Regarding `CN(C)CCN1C(=O)c2c(N)ccc3cc4ccccc4c(c23)C1=O` [*4-NH2], the “Cardiotox:L1210sens” value was 86.80.

For the compound `CNCCN1C(=O)c2ccc(Cl)c3cc4ccccc4c(c23)C1=O` [2-(CH2)2NHCH3; 6-Cl], the “Cardiotox:L1210sens” value amounted to 143.40.

Consider `CN(C)CCN1C(=O)c2cccc3cc4cc(Cl)ccc4c(c23)C1=O` [*9-Cl], for which the “Cardiotox:L1210sens” value was determined as 192.75.

`CCc1ccc2c3c(c4ccccc4cc13)C(=O)N(CCN(C)C)C2=O` [*6-C2H5]: the “Cardiotox:L1210sens” value amounted to 42.80.

Take `O=C1c2cccc3cc4ccccc4c(c23)C(=O)N1CCN1CCCC1` [2-(CH2)2N(CH2)4]: the “Cardiotox:L1210sens” value came out at 61.33.

On to `CCSc1ccc2c3c(c4ccccc4cc13)C(=O)N(CCN(C)C)C2=O` [*6-SC2H5], for which the “Cardiotox:L1210sens” value was 1289.67.

With `CC(=O)Nc1ccc2cc3cccc4c3c(c2c1)C(=O)N(CCN(C)C)C4=O` [*10-NHCOCH3], the “Cardiotox:L1210sens” value was 158.90.

For the compound `CN(C)CCN1C(=O)c2cccc3c(N)c4ccccc4c(c23)C1=O` [*7-NH2], the “Cardiotox:L1210sens” value is listed as 390.20.

For the compound `CN(C)CCN1C(=O)c2cccc3cc4ccc(I)cc4c(c23)C1=O` [*10-I], the “Cardiotox:L1210sens” value is recorded as 15.34.

As for `CN(C)CCN1C(=O)c2cc(N)cc3cc4ccccc4c(c23)C1=O` [*5-NH2], the “Cardiotox:L1210sens” value is recorded as 287.33.

As to `CNCCN1C(=O)c2ccc(OC)c3cc4ccccc4c(c23)C1=O` [2-(CH2)2NHCH3; 6-OCH3], the “Cardiotox:L1210sens” value was found to be 197.49.

For `CN(C)CCN1C(=O)c2cccc3cc4cccc(Cl)c4c(c23)C1=O` [*11-Cl], the “Cardiotox:L1210sens” value was 4.62.

As to `CN(C)CCN1C(=O)c2c(Cl)ccc3cc4ccccc4c(c23)C1=O` [*4-Cl], the “Cardiotox:L1210sens” value came to 90.00.

In the case of `O=C1c2cccc3cc4ccccc4c(c23)C(=O)N1CCNCCO` [2-(CH2)2NH(CH2)2OH], the “Cardiotox:L1210sens” value was 52.39.
